No constants are given. Whether binding was seen depends on the method and setting. In cells and extracts the contact can be indirect. Some entries that bind do so weakly or less than the wild type.
Biological target: wild-type (WT) form of PAK1, Venus fragment fusion (UniProt Q13153)
Experiment: split reporter

Chains of the proteins cited; added tags and fusions are not shown. Lines headed by an entry give the natural chain unless they say otherwise; changes in a name come on top.
UniProt Q13153, whole entry: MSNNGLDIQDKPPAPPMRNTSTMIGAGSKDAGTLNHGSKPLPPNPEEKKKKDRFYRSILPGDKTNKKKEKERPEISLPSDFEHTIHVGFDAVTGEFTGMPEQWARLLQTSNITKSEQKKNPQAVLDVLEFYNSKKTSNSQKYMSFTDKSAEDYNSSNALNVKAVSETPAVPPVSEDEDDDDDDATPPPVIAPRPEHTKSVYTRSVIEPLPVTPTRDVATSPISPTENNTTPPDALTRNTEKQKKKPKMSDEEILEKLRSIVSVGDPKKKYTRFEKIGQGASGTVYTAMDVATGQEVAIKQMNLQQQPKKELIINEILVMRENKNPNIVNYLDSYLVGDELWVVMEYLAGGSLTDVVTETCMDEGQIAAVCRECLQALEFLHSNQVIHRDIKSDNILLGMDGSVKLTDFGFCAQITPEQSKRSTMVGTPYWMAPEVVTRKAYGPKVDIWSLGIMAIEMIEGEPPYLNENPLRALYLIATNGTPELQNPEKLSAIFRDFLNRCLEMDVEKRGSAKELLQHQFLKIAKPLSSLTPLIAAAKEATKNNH

Row | binding | Substance
1 | binds | constitutively active (CA) mutant form of CDC42 (Q61L), Venus fragment fusion (from UniProt P60953 1-191)
2 | binds | constitutively active (CA) mutant form of RHOJ (Q79L), Venus fragment fusion (from UniProt Q9H4E5 1-214)
